PMC12375108
Results are given in words; binding and its absence hold for the method and conditions named. Binding seen in cells or lysates may run through a third protein. Here binding means that the protein was enriched with, or labelled near, the bait; the list need not be complete. Sequences can lack the tags named with a protein.

Chains of the proteins cited; added tags and fusions are not shown. Residues count along the entry.
UniProt P26443, residues 54-558: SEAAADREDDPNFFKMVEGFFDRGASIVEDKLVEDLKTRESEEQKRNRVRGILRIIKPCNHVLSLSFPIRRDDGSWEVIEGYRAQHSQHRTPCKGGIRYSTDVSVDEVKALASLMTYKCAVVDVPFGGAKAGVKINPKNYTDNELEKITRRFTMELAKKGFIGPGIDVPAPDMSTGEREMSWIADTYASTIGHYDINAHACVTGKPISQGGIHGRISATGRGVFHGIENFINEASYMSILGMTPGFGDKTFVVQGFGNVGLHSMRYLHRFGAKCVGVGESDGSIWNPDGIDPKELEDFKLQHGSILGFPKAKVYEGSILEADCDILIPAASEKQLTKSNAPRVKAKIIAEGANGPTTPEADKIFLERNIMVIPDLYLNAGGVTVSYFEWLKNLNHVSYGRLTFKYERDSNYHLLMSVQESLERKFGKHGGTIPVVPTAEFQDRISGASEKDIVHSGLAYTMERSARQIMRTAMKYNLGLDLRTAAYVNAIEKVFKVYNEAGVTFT

Molecular target: T1, GST-tagged E. coli hinT H101N (E. coli) (UniProt P0ACE7)
T1 sequence: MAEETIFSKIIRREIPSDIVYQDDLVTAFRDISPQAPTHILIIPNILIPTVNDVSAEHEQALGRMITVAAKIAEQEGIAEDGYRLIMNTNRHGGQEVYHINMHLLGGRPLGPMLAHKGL
Assay: affinity purification with mass spectrometry; label-free quantitative LC-MS/MS of proteins enriched with GST-Ec hinT H101N from YUMM3.3 SelO against SelO D338A lysates; filtered for mitochondrial proteins; only the target purified

binding: binds
Substance: AMPylated Glud1 (glutamate dehydrogenase), endogenous in YUMM3.3 cells expressing SelO (from UniProt P26443 54-558) (enzyme)
